Drawing on PMC11117661, “Development of a Novel In Silico Classification Model to Assess Reactive Metabolite Formation in the Cysteine Trapping Assay and Investigation of Important Substructures” (Biomolecules, 2024), this text covers RI integrated area for 1 compound.

The series is described as follows: cysteine trapping assay ([35S]cysteine, HPLC with radiomatic detector) for reactive metabolites. The note with it: human liver microsome 2 mg/mL, L-[35S]-Cysteine, NADPH, 37 °C, 2 h. Background: Liver microsomes are a subcellular fraction often used to study metabolism.

On to `CC(C)c1c(C(=O)Nc2ccccc2)c(-c2ccccc2)c(-c2ccc(F)cc2)n1CC[C@@H](O)C[C@@H](O)CC(=O)O` [Atorvastatin], for which the RI integrated area worked out at 4464.4 count.
